Results are given in words; binding and its absence hold for the method and conditions named. Binding can be weak; no strength is given.
Legend:
[1] = target: Fam20C, recombinantly purified (UniProt Q8IXL6); experiment: negative-stain single particle electron microscopy; Fam20A/20C complexes mixed with or without ATP (250 μM), purified by size exclusion chromatography, diluted to 40 nM, 2% uranyl acetate, 2D class averages; both purified
[2] = target: Fam20C, recombinantly purified (UniProt Q8IXL6); experiment: SEC; purified Fam20A and Fam20C mixed, Fam20A in slight excess, gel filtration in the absence or presence of 250 μM ATP; both purified

Protein sequences, listed by entry. Tags and fused reporters are not part of them. Lines headed by an entry give the natural chain unless they say otherwise; changes in a name come on top.
UniProt Q8IXL6: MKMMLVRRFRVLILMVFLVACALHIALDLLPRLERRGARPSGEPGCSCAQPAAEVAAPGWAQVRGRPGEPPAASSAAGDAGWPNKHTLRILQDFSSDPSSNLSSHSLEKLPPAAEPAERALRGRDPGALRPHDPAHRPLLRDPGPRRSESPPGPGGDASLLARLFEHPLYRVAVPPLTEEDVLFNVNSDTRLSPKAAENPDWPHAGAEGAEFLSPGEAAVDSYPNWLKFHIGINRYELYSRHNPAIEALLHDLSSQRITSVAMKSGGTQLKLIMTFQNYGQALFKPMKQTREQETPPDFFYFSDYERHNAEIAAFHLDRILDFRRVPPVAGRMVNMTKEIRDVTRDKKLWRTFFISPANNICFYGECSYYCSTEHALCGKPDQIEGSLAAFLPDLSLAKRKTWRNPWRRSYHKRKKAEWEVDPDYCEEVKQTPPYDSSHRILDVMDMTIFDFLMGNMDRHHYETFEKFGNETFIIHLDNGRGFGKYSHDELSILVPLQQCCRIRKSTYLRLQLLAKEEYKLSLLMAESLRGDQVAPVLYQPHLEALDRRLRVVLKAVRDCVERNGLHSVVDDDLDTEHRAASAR

B1: Human Fam20A residues 69–529 (domain or fragment, UniProt Q96MK3 69-529, looked up)
chain: HNFSRTEPRTEPAGGSHSGSSSKLQALFAHPLYNVPEEPPLLGAEDSLLASQEALRYYRRKVARWNRRHKMYREQMNLTSLDPPLQLRLEASWVQFHLGINRHGLYSRSSPVVSKLLQDMRHFPTISADYSQDEKALLGACDCTQIVKPSGVHLKLVLRFSDFGKAMFKPMRQQRDEETPVDFFYFIDFQRHNAEIAAFHLDRILDFRRVPPTVGRIVNVTKEILEVTKNEILQSVFFVSPASNVCFFAKCPYMCKTEYAVCGNPHLLEGSLSAFLPSLNLAPRLSVPNPWIRSYTLAGKEEWEVNPLYCDTVKQIYPYNNSQRLLNVIDMAIFDFLIGNMDRHHYEMFTKFGDDGFLIHLDNARGFGRHSHDEISILSPLSQCCMIKKKTLLHLQLLAQADYRLSDVMRESLLEDQLSPVLTEPHLLALDRRLQTILRTVEGCIVAHGQQSVIVDGPVEQ
notes: Fam20A, human, residues 69-529, secreted from a modified pI-secSUMOstar vector; the 6xHis-SUMO tag was removed by TEV protease; The only purified Fam20A construct that the methods describe; also called untagged Fam20A; purified Fam20A; source: Hi5 insect cells (baculovirus), conditioned medium, purified (Ni-NTA, Resource Q, Superdex 200); not shown: 6xHis, N-terminal, cleaved; SUMO, N-terminal, …
[1]
  binding: binds
[2]
  binding: binds

— PMC5413348, “Structure of Fam20A reveals a pseudokinase featuring a unique disulfide pattern and inverted ATP-binding” (eLife, 2017)
